Values from PubChem BioAssay AID1508597 (Cure First, 2020).
This is a random part of the about 2,100 reagents, under one of the conditions tested. 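Calls flag viability under 80% in either arm, not effects specific to rucaparib; the reference for percent is not stated.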 The numbers tell different reagents against one gene apart. Not given: the 100% reference.

- Assay: 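Genes whose silencing sensitises or protects ovarian cancer cells against rucaparib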 (primary screen)
- Cells: human ovarian carcinoma lines grown from tumours: OCI-P5x (papillary serous) and OCI-C5x (clear cell)
- Reagents: siRNA pool against human genes, 1.25 pmol siRNA per well
- Time to read-out: 72 h or 96 h, depending on the cell culture
- Conditions: rucaparib 20 µM (about IC30) or vehicle, present until read-out
- Rucaparib or vehicle: Rucaparib
- Cell line: OCI-C5x (clear cell)
- Measurement: 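Luminescent ATP-based viability assay read 72 or 96 h after transfection, depending on culture, given as normalised percent viability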
- Direction: viability, normalised: higher = more viable cells remaining
- Call rule: 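a well counts as a hit if its normalised viability is under 80 percent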
- Meaning of the calls: active = viability under 80%; inactive = viability 80% or more

For BAIAP2 (BAR/IMD domain containing adaptor protein 2), technical replicate 1, the entry reads viability, normalised (%) = 57.7; active.
With BAIAP2 (BAR/IMD domain containing adaptor protein 2), technical replicate 2, the values are viability, normalised (%) = 45.6; active.
With BAIAP2 (BAR/IMD domain containing adaptor protein 2), technical replicate 3, the entry reads viability, normalised (%) = 54.6; active.
For SLK (STE20 like kinase), technical replicate 1, the values are viability, normalised (%) = 46.4; active.
With SLK (STE20 like kinase), technical replicate 2 the deposit lists viability, normalised (%) = 54; active.
With SLK (STE20 like kinase), technical replicate 3, the values are viability, normalised (%) = 43.4; active.
For NOG (noggin), technical replicate 1 the deposit lists viability, normalised (%) = 44.8; active.
NOG (noggin), technical replicate 2 scored viability, normalised (%) = 37; active.
NOG (noggin), technical replicate 3 scored viability, normalised (%) = 31.6; active.
CARMIL1 (capping protein regulator and myosin 1 linker 1), technical replicate 1 showed viability, normalised (%) = 53; active.
For CARMIL1 (capping protein regulator and myosin 1 linker 1), technical replicate 2, the entry reads viability, normalised (%) = 48.4; active.
For CARMIL1 (capping protein regulator and myosin 1 linker 1), technical replicate 3, the values are viability, normalised (%) = 64.7; active.
For SENP5 (SUMO specific peptidase 5), technical replicate 1 the deposit lists viability, normalised (%) = 55; active.
SENP5 (SUMO specific peptidase 5), technical replicate 2 scored viability, normalised (%) = 64.6; active.
SENP5 (SUMO specific peptidase 5), technical replicate 3 gave viability, normalised (%) = 52.3; active.
PRMT8 (protein arginine methyltransferase 8), technical replicate 1 scored viability, normalised (%) = 48.8; active.
PRMT8 (protein arginine methyltransferase 8), technical replicate 2 scored viability, normalised (%) = 40.4; active.
PRMT8 (protein arginine methyltransferase 8), technical replicate 3 showed viability, normalised (%) = 41.1; active.
With PMS2 (PMS1 homolog 2, mismatch repair system component), technical replicate 1 the deposit lists viability, normalised (%) = 95; inactive.
With PMS2 (PMS1 homolog 2, mismatch repair system component), technical replicate 2 the deposit lists viability, normalised (%) = 103; inactive.
With PMS2 (PMS1 homolog 2, mismatch repair system component), technical replicate 3 the deposit lists viability, normalised (%) = 133; inactive.
With NME9 (NME/NM23 family member 9) #1, technical replicate 1, the values are viability, normalised (%) = 45.3; active.
NME9 (NME/NM23 family member 9) #1, technical replicate 2 scored viability, normalised (%) = 44.6; active.
NME9 (NME/NM23 family member 9) #1, technical replicate 3 gave viability, normalised (%) = 45.3; active.
NME9 (NME/NM23 family member 9) #2, technical replicate 1 scored viability, normalised (%) = 61.1; active.
NME9 (NME/NM23 family member 9) #2, technical replicate 2 gave viability, normalised (%) = 52.2; active.
NME9 (NME/NM23 family member 9) #2, technical replicate 3 showed viability, normalised (%) = 62; active.
PEA15 (proliferation and apoptosis adaptor protein 15), technical replicate 1 scored viability, normalised (%) = 46.7; active.
PEA15 (proliferation and apoptosis adaptor protein 15), technical replicate 2 gave viability, normalised (%) = 38.8; active.
PEA15 (proliferation and apoptosis adaptor protein 15), technical replicate 3 showed viability, normalised (%) = 39.8; active.
YBX1 (Y-box binding protein 1), technical replicate 1 gave viability, normalised (%) = 46.8; active.
YBX1 (Y-box binding protein 1), technical replicate 2 gave viability, normalised (%) = 44.4; active.
YBX1 (Y-box binding protein 1), technical replicate 3 showed viability, normalised (%) = 40.2; active.

4 of these entries, set out differently.
| target gene | reagent no. | technical replicate | viability, normalised (%) | Call |
| --- | --- | --- | --- | --- |
| CARMIL1 (capping protein regulator and myosin 1 linker 1) | 1 | 2 | 48.4 | active |
| CARMIL1 (capping protein regulator and myosin 1 linker 1) | 1 | 3 | 64.7 | active |
| SENP5 (SUMO specific peptidase 5) | 1 | 1 | 55 | active |
| SENP5 (SUMO specific peptidase 5) | 1 | 2 | 64.6 | active |
